Earlier results as cited in patent US9725459B2, “3-oxo-tetrahydro-furo[3,2-B]pyrrol-4(5H)-yl) derivatives I” (GRÜNENTHAL GMBH, priority 2014, dated 2017).

Conditions: known characteristic of control compound; cited from earlier work

CC(C)NCC(O)COc1ccc(CC(N)=O)cc1 (stereo not shown) [atenolol]
human absorption: approximately 50%
